The other results are listed elsewhere or left out.
Key:
Assay in all cases: log2 fold change, soluble protein after heating vs DMSO (PISA); higher = thermal stabilisation; K562 lysate, 10 uM; active = over 0.2 and 3.5 SD of the protein, either way, in both replicates (recomputed)
alvocidib = compound: CN1CC[C@H](c2c(O)cc(O)c3c(=O)cc(-c4ccccc4Cl)oc23)[C@H](O)C1 [alvocidib]
Method in brief: (§1)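 To prepare the extract, K562 pellets were dounce-homogenised in PBS pH 7.4 with 1 mM MgCl2, giving crude material at 1 mg/mL protein. This was treated with 10 μM compound for 30 min, then heated in aliquots for 3 min over 48°C-58°C before pooling and addition of NP-40 to 0.5% at 4°C. Centrifugation at 21,000xg for 90 min left soluble protein in the supernatant, which TMTpro 16plex LC-MS/MS quantified with equalised channel sums. Results are log-two fold changes in thermal stability compared with solvent controls, from duplicates.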

By UniProt entry, the sequences of proteins in these tests, tags left out. Where a name states a change or a piece, a line headed by the entry shows the natural chain unless it says otherwise.
UniProt O75534: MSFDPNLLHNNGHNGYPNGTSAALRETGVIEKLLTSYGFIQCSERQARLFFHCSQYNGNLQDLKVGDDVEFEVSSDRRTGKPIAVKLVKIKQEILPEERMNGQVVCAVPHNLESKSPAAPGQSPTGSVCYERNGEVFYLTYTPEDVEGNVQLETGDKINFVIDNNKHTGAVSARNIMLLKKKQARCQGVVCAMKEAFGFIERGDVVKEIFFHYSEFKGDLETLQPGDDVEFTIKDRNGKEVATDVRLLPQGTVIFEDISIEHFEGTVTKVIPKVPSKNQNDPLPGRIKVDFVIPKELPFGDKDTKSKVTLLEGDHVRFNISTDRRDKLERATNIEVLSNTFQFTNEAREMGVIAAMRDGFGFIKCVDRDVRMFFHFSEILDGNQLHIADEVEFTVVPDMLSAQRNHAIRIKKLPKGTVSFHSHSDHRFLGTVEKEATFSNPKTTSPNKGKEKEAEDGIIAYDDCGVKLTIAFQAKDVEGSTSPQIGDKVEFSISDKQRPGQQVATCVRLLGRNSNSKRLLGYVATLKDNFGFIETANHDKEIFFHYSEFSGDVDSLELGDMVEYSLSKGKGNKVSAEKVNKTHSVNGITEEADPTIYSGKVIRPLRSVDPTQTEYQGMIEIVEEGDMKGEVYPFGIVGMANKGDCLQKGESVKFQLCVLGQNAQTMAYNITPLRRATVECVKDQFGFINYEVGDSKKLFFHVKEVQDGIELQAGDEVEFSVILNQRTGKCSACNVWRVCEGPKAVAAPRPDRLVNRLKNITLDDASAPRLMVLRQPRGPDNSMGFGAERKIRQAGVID
UniProt Q70SY1: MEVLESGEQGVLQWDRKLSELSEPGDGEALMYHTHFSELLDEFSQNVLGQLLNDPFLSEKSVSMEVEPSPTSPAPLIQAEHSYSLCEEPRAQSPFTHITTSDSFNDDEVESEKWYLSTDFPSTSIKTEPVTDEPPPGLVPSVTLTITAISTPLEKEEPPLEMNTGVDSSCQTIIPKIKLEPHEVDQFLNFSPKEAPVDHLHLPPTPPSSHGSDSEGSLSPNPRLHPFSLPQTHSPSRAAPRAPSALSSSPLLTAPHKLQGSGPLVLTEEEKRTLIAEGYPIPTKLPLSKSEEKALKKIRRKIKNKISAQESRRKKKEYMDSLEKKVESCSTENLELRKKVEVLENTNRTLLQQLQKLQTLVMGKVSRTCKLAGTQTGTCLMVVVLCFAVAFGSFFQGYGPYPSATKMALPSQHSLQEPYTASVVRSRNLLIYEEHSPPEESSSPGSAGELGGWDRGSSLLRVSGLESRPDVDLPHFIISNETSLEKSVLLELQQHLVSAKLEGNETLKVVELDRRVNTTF
UniProt Q9UKG9: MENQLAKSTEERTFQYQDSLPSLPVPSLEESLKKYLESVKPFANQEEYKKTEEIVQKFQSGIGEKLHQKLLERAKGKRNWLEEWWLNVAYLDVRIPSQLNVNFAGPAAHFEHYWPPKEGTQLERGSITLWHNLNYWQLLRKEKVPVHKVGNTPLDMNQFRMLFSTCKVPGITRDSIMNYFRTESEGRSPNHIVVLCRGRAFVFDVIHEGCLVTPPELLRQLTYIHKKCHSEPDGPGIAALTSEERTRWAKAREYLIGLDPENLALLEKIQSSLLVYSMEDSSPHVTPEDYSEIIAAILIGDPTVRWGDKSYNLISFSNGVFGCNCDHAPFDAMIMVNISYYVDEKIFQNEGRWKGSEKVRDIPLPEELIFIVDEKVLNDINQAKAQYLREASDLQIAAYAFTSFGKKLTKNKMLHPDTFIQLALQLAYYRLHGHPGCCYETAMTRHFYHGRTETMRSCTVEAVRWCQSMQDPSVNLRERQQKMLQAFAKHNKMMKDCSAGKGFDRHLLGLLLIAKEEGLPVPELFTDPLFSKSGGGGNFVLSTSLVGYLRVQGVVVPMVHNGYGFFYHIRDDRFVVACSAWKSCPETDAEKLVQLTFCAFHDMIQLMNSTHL
UniProt Q14894: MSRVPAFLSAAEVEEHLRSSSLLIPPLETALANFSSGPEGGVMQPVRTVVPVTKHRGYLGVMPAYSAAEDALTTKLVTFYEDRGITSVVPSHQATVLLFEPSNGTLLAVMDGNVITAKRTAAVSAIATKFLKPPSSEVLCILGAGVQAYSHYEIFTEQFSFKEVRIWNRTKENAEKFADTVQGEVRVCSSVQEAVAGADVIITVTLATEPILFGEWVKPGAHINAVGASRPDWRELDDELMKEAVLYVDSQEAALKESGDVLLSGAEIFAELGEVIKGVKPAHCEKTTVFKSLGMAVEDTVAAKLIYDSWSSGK
UniProt Q8IWT3: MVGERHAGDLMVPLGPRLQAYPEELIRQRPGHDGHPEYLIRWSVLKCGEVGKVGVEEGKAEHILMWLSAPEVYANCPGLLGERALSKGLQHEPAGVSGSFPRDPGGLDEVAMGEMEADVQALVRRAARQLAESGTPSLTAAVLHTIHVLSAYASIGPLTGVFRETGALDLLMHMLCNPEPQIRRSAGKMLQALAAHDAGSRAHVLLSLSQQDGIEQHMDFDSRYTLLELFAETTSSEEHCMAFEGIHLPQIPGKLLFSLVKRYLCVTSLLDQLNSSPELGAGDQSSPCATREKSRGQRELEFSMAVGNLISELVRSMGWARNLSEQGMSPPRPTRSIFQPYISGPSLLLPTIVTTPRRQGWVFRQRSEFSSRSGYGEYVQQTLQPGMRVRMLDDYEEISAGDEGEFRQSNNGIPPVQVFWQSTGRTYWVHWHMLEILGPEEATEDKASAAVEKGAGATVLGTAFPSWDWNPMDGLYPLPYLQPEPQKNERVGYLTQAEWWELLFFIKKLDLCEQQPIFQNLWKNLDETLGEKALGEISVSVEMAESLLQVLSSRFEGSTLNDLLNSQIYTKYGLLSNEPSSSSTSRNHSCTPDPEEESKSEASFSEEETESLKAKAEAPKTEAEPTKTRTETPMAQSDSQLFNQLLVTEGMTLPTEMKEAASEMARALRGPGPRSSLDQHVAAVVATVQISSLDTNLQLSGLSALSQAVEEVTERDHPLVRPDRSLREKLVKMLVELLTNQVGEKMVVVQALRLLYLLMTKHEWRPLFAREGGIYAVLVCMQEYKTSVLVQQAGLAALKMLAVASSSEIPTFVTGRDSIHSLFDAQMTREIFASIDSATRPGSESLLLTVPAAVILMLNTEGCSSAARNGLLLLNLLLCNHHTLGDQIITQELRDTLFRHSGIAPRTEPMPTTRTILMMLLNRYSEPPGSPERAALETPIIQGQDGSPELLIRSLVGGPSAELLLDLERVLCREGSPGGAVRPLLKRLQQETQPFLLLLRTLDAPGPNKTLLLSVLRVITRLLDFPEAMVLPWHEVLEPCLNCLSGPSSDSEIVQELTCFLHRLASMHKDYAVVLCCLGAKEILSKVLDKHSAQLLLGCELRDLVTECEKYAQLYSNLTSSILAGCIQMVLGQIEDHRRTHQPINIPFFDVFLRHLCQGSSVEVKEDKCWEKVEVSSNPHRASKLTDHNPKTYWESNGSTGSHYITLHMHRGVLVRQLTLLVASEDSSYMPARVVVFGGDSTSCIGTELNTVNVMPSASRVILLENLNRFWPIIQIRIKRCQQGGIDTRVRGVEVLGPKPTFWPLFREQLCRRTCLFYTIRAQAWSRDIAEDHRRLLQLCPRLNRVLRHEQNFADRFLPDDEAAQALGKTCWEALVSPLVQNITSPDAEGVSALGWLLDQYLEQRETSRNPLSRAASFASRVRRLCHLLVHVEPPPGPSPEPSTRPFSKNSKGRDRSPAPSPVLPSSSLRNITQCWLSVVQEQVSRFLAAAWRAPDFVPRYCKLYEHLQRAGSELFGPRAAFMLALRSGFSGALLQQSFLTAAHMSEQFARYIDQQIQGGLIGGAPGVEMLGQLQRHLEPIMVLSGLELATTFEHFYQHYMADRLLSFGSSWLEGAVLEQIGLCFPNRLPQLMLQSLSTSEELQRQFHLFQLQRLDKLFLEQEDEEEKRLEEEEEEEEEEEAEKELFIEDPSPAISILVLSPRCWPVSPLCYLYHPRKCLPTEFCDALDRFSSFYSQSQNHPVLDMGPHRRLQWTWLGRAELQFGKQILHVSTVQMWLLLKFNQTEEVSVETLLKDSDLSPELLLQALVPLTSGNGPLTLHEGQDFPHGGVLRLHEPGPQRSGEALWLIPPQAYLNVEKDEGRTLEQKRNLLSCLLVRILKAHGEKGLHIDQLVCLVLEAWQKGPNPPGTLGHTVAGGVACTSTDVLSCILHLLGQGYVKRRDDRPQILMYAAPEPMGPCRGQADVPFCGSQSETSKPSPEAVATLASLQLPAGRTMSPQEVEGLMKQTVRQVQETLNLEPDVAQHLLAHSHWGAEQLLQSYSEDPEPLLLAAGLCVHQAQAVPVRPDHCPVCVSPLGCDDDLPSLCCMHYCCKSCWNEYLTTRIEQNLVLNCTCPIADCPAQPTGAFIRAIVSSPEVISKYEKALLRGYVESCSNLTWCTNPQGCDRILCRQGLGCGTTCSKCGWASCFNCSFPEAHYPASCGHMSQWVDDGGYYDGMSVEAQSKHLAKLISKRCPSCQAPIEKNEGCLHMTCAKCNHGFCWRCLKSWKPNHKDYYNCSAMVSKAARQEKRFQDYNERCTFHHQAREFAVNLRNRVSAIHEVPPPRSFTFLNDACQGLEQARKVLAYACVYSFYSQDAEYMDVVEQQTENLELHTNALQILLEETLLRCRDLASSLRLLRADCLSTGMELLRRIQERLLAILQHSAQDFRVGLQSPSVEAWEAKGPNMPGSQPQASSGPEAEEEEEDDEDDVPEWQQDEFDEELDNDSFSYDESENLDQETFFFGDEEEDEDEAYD
UniProt P54108: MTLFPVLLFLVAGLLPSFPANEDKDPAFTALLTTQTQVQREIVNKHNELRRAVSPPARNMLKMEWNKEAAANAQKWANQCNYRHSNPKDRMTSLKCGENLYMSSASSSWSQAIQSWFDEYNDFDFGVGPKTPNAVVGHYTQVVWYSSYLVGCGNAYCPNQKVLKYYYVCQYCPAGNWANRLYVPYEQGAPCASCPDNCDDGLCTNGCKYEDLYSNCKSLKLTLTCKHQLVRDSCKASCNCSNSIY
UniProt P01037: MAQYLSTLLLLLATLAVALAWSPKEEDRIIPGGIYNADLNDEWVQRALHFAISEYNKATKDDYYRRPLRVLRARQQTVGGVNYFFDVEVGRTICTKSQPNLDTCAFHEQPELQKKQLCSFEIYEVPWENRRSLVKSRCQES
UniProt Q53TN4: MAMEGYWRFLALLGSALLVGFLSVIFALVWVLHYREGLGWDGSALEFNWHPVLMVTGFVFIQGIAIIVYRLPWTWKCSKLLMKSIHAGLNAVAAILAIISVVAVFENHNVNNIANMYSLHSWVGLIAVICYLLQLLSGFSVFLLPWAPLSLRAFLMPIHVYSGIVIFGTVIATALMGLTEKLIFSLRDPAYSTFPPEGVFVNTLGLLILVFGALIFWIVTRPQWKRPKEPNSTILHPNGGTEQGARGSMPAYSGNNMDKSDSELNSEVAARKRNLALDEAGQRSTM

Tubastatin A = compound: CN1CCc2c(c3ccccc3n2Cc2ccc(C(=O)NO)cc2)C1 [Tubastatin A]
Method in brief: as §1

alisertib = compound: COc1cc(Nc2ncc3c(n2)-c2ccc(Cl)cc2C(c2c(F)cccc2OC)=NC3)ccc1C(=O)O [alisertib]
Method in brief: as §1

[1] = compound: COc1cc2nc(-c3cc(F)ccc3O)nc(N[C@@H]3CNC[C@H]3C(C)(C)O)c2cc1OC
Method in brief: as §1

gefitinib = compound: COc1cc2ncnc(Nc3ccc(F)c(Cl)c3)c2cc1OCCCN1CCOCC1 [gefitinib]
Method in brief: as §1

lapatinib = compound: CS(=O)(=O)CCNCc1ccc(-c2ccc3ncnc(Nc4ccc(OCc5cccc(F)c5)c(Cl)c4)c3c2)o1 [lapatinib]
Method in brief: as §1

pictilisib = compound: CS(=O)(=O)N1CCN(Cc2cc3nc(-c4cccc5[nH]ncc45)nc(N4CCOCC4)c3s2)CC1 [pictilisib]
Method in brief: as §1

crizotinib = compound: C[C@@H](Oc1cc(-c2cnn(C3CCNCC3)c2)cnc1N)c1c(Cl)ccc(F)c1Cl [crizotinib]
Method in brief: as §1

[2] = compound: C[C@H](C1=CC=C(C=C1)C(=O)NC2=C3C=CNC3=NC=C2)N
Method in brief: as §1

gandotinib = compound: Cc1cc(Nc2cc(CN3CCOCC3)c3nc(C)c(Cc4ccc(Cl)cc4F)n3n2)n[nH]1 [gandotinib]
Method in brief: as §1

doramapimod = compound: Cc1ccc(-n2nc(C(C)(C)C)cc2NC(=O)Nc2ccc(OCCN3CCOCC3)c3ccccc23)cc1 [doramapimod]
Method in brief: as §1

bafetinib = compound: Cc1ccc(NC(=O)c2ccc(CN3CC[C@H](N(C)C)C3)c(C(F)(F)F)c2)cc1Nc1nccc(-c2cncnc2)n1 [bafetinib]
Method in brief: as §1

[3] = compound: Cc1cccc(CC(=O)N2CCc3c2ccc(-c2cn(C)c4ncnc(N)c24)c3F)n1
Method in brief: as §1

[4] = compound: CNC(=O)C1=CC=CC=C1NC2=NC(=NC=C2Cl)NC3=C(C=C(C=C3)N4CCOCC4)OC
Method in brief: as §1

defactinib = compound: CNC(=O)c1ccc(Nc2ncc(C(F)(F)F)c(NCc3nccnc3N(C)S(C)(=O)=O)n2)cc1 [defactinib]
Method in brief: as §1

[5] = compound: CNc1nc(-c2ccc3c(N)n[nH]c3c2)cc(N2C[C@@H](C(=O)NC3CCCCC3)CC[C@H]2C)n1
Method in brief: as §1

encorafenib = compound: COC(=O)N[C@@H](C)CNc1nccc(-c2cn(C(C)C)nc2-c2cc(Cl)cc(NS(C)(=O)=O)c2F)n1 [encorafenib]
Method in brief: as §1

[6] = compound: COC(=O)[C@H](CCSC)NC(=O)C1=C(C=C(C=C1)NC[C@H](CS)N)C2=CC=CC=C2
Method in brief: as §1

duvelisib = compound: C[C@H](Nc1ncnc2nc[nH]c12)c1cc2cccc(Cl)c2c(=O)n1-c1ccccc1 [duvelisib]
Method in brief: as §1

tozasertib = compound: Cc1cc(Nc2cc(N3CCN(C)CC3)nc(Sc3ccc(NC(=O)C4CC4)cc3)n2)n[nH]1 [tozasertib]
Method in brief: as §1

Measured: log2 fold change

CSDE1 isoform 3 (UniProt O75534)
inactive: alvocidib 0.029 | Tubastatin A -0.014 | alisertib -0.011 | [1] 0.28 | gefitinib -0.09 | lapatinib 0.184 | pictilisib -0.141 | crizotinib -0.179 | [2] 0.139 | gandotinib -0.043 | doramapimod 0.055 | bafetinib 0.126 | [3] -0.058

CREB3L2 (UniProt Q70SY1)
inactive: alvocidib -0.065 | Tubastatin A 0.084 | [4] 0.011 | defactinib -0.066 | [5] 0.139 | encorafenib -0.012 | [6] 0.023 | alisertib -0.093 | [1] 0.012 | gefitinib -0.16 | lapatinib 0.003 | pictilisib -0.02 | [2] -0.151 | duvelisib -0.066 | gandotinib 0.337 | tozasertib 0.071 | bafetinib 0.011 | [3] 0.225

CROT isoform 3 (UniProt Q9UKG9)
inactive: alvocidib -0.055 | [4] -0.114 | encorafenib 0.027 | [6] -0.053 | alisertib -0.154 | gefitinib -0.049 | crizotinib 0.025 | [2] 0.016 | gandotinib -0.199 | tozasertib 0.133 | doramapimod -0.046 | [3] -0.122

CRYM (UniProt Q14894)
inactive: alvocidib -0.061 | Tubastatin A 0.252 | defactinib 0.13 | encorafenib -0.054 | [6] 0.057 | [1] -0.058 | lapatinib 0.012 | pictilisib 0.059 | crizotinib -0.017 | [2] -0.029 | gandotinib 0.067 | tozasertib 0.051 | doramapimod 0.047 | bafetinib -0.08 | [3] 0.09

CUL9 (UniProt Q8IWT3)
inactive: alvocidib 0 | [4] -0.199 | alisertib -0.099 | [1] 0.032 | gefitinib -0.004 | lapatinib -0.06 | pictilisib -0.326 | crizotinib -0.024 | [2] 0.014 | gandotinib 0.143 | doramapimod -0.07 | bafetinib 0.255 | [3] 0.059

CRISP3 isoform 3 (UniProt P54108)
inactive: alvocidib 0.093 | Tubastatin A 1.06 | [4] -0.247 | [5] 0.21 | alisertib -0.082 | gefitinib 0.087 | [2] -0.011 | duvelisib -0.632 | gandotinib -0.297 | [3] 0.243

CST1 (UniProt P01037)
inactive: alvocidib 0.026 | Tubastatin A 1.37 | [4] -0.245 | encorafenib -0.02 | [6] 0.027 | alisertib -0.036 | gefitinib 0.031 | crizotinib 0.533 | [2] 0.086 | gandotinib -0.299 | tozasertib 0.619 | doramapimod 0.082 | [3] 0.414

CYBRD1 (UniProt Q53TN4)
inactive: alvocidib -0.007 | [4] 0.025 | defactinib -0.13 | [5] 0.146 | [1] 0.08 | lapatinib -0.04 | pictilisib -0.058 | crizotinib 0.041 | [2] -0.02 | duvelisib -0.08 | gandotinib 0.063 | doramapimod -0.139 | bafetinib -0.066 | [3] 0.034
